Measured values published in the supplement of paper PMC7125110.
± gives the standard error. The uncertainty is large for many entries.

B1: glmS ribozyme (parent)
chain: AUAAAAGCGCCAGAACUACAGAAAUGUAGUUGACGAGGAGGAGGUUUAUCGAAUUUUCGGCGGAUGCCUCCAAA

Variants of: B1
Assay: self-cleavage kobs at 160 uM GlcN6P; higher = faster cleavage; RNA array
Conditions: with glucosamine-6-phosphate
Summary of the method: (§1)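 kobs was derived by fitting per-tile medians to one- or two-exponential decays after normalising signals to baseline and to non-cleaving reference variants. Those signals came from barcoded ribozyme variants transcribed in situ by E. coli RNA polymerase on sequenced MiSeq chips, followed through a hybridised Cy3 probe at 37 °C and imaged over ~14 h. Glucosamine-6-phosphate (40 μM to 10 mM) in HEPES/KCl/Mg(OAc)2 buffer was flowed in. Weighted Michaelis–Menten fits across concentrations then gave kcat and KM.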

Variant | self-cleavage kobs at 160 uM GlcN6P [s⁻¹]
A14U C34A C50G U54G C71G | 2.92e-05 ± 1.5e-05
U30G U55G | 0.00062 ± 0.00033
G29U U49A U57C C70G | 6.44e-05 ± 3.6e-05
A15U C16U U49A C70G | 2.45e-05 ± 1.8e-05
C50U C68U | 1.61e-05 ± 1.3e-05
G37A C50G | 2.23e-05 ± 2.1e-05
G29C G62C C68G | 2.68e-05 ± 2.3e-05
G51U C68G | 2.51e-05 ± 1.3e-05
U30G U56A C68G | 3.46e-05 ± 2.3e-05
A64G U69G | 2.38e-05 ± 1.5e-05

Variants of: B1
Assay: self-cleavage kobs at 2500 uM GlcN6P; higher = faster cleavage; RNA array
Conditions: with glucosamine-6-phosphate
Summary of the method: as §1

Variant | self-cleavage kobs at 2500 uM GlcN6P [s⁻¹]
G13U U69G | 2.97e-05 ± 2.7e-05
U54G C67G C70A C71U | 4.14e-05 ± 3e-05
G29C G37C C68G | 5.02e-05 ± 2.7e-05
A15G A42U C70G | 3.43e-05 ± 1.7e-05
G13C U56C | 1.63e-05 ± 1.3e-05
G29U U49A U57C C70G | 6.66e-05 ± 3.8e-05
A23C A52G U69A | 6.5e-05 ± 3.8e-05
C10U C11A U54G | 5.27e-05 ± 4.7e-05
G13A A52U C70G | 3.53e-05 ± 2.5e-05
C10U C71G | 2.03e-05 ± 1.2e-05
A14G U45A A48U | 0.00158 ± 0.0008
U30G C50U C68G | 4.07e-05 ± 2.7e-05
G32A U57G U69G | 6.38e-05 ± 4.4e-05
U31C A42U | 2.5e-05 ± 1.7e-05
U31C C68G | 1.68e-05 ± 1.6e-05
U30G A48U U54A | 2.52e-05 ± 2.3e-05
A6U G41A | 1.87e-05 ± 1.8e-05
C16A G66U C68A | 4.29e-05 ± 3.2e-05
U30G U56A C68G | 1.71e-05 ± 1.1e-05
A6G C8A G13U G29C G35U G37A C71U | 3.17e-05 ± 2.1e-05
G13C A33C C61A | 0.00162 ± 0.0015
A36G U56G G63A C70G | 3.62e-05 ± 3.2e-05

Variants of: B1
Assay: self-cleavage kobs at 640 uM GlcN6P; higher = faster cleavage; RNA array
Conditions: with glucosamine-6-phosphate
Summary of the method: as §1

Variant | self-cleavage kobs at 640 uM GlcN6P [s⁻¹]
G29A C50G U55A | 0.00111 ± 0.00063
U47G U54G U57C | 2.28e-05 ± 1.9e-05
U54G C67G C70A C71U | 3.73e-05 ± 2.2e-05
C50G G62A | 3.33e-05 ± 2.8e-05
U45C U65C | 2.3e-05 ± 1.2e-05
C34U G63U A64G | 3.67e-05 ± 3.4e-05
C50U C68U | 2.04e-05 ± 1.3e-05
U31G G41A U54C | 3e-05 ± 2.2e-05
A36U U69A | 7.85e-05 ± 3.9e-05
A36G U56G G63A C70G | 0.000171 ± 0.0001

As a short view, part of the list above:
Variant | self-cleavage kobs at 640 uM GlcN6P [s⁻¹]
G29A C50G U55A | 0.00111 ± 0.00063
U47G U54G U57C | 2.28e-05 ± 1.9e-05
U54G C67G C70A C71U | 3.73e-05 ± 2.2e-05
C50G G62A | 3.33e-05 ± 2.8e-05
U45C U65C | 2.3e-05 ± 1.2e-05

Variants of: B1
Assay: self-cleavage kobs at 10000 uM GlcN6P; higher = faster cleavage; RNA array
Conditions: with glucosamine-6-phosphate
Summary of the method: as §1

Variant | self-cleavage kobs at 10000 uM GlcN6P [s⁻¹]
C50G G62A | 0.00056 ± 0.00043
C50U C68U | 1.58e-05 ± 8.6e-06
U31C A42U | 1.4e-05 ± 8.3e-06
A36U U69A | 2.48e-05 ± 2e-05
